Measurements: publication PMC13340245
Where two headings read alike, the source gives them in different places. No constants are given. Whether binding was seen depends on the method and setting. Binding seen in cells or lysates may run through a third protein. These calls come from enrichment with a bait or labelling near it, and not all partners need be listed. For some of these results: No binding means not detected with the bait. Values belong to the molecule of their own block, whether it stands above or below them.

By UniProt entry, the sequences of proteins in these tests, tags left out. Where a name states a change or a piece, a line headed by the entry shows the natural chain unless it says otherwise.
UniProt A0R7G5: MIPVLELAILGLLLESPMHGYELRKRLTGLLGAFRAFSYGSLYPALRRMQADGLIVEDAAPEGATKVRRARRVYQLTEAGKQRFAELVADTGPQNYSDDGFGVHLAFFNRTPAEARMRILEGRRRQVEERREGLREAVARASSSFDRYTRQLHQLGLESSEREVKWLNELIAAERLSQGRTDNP
UniProt A0QWT1: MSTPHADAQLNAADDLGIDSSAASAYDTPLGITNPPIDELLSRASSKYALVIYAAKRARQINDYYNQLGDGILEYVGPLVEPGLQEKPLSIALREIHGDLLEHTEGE

Key:
[1] = target: NapM fused with a FLAGx3 tag (M. smegmatis) (UniProt A0R7G5); experiment: affinity purification with mass spectrometry; pull-down with NapM fused with a FLAGx3 tag, then mass spectrometry; methods in the supplement
[2] = target: NapM fused with a FLAGx3 tag (M. smegmatis) (UniProt A0R7G5); experiment: as above; remark: listed apart in the source

binding [2]: binds
B2: CwsA (protein, UniProt A0QNF5 1-136)
chain: MPARADVRLAPRQRLTRGLKYTAVGPVDITRGVLGIGADTAQATAAELRRRYASGKLQRQLAAAAEAVAALPETIQEAVQEVVSPPKKRRRRPLLIAAVAVTVLGGGAAAFSIVRRRSRPQEPPTLAPSVEVAPKP

binding [2]: binds
B3: KhpA (protein, UniProt A0QV38 1-76)
chain: MVDAVEHLVRGIVDNPDDVRVDMVTNRRGRTVEVHVHPDDLGKVIGRGGRTATALRTLVAGIGGRGIRVDVVDTDQ

Further lines, the molecule ahead of its results:

Molecule: ω subunit of DNA-directed RNA polymerase (from UniProt A0QWT1 1-107)
binding [1]: binds

B1: DnaA (protein, UniProt A0R7K1 1-504)
chain: MTADPDPPFVAVWNSVVAELNGDVNGDRQGDPSLPVLTPQQRAWLKLVKPLVIAEGFALLSVPTPFVQNEIERHLREPIVTALSRKLGQRVELGVRIATPTDEPEDAPDSFADSPAPASVPAGPADADEIDDDRDARVNAQESWPKYFSRPEPDTSSDDSNAVNLNRRYTFDTFVIGASNRFAHAATLAIAEAPARAYNPLFIWGESGLGKTHLLHAAGNYAQRLFPGMRVKYVSTEEFTNDFINSLRDDRKASFKRSYRDIDILLVDDIQFIEGKEGIQEEFFHTFNTLHNSNKQIVISSDRPPKQLATLEDRLRTRFEWGLITDVQPPELETRIAILRKKAQMDRLDVPDDVLELIASSIERNIRELEGALIRVTAFASLNKTRIDRSLAEVVLRDLIADATTMQISTAAIMAVTAEYFETTVEELRGPGKTRALAQSRQIAMYLCRELTDLSLPKIGQAFGRDHTTVMYAEKKIRGEMAERREVFDHVKELTTRIRQRAKR
binding [2]: no binding
